The list shows a part of the results.
Legend:
Assay in all cases: log2 fold change, soluble protein after heating vs DMSO (PISA); higher = thermal stabilisation; K562 cells, 10 uM, 30 min; active = over 0.2 and 3.5 SD of the protein, either way, in both replicates (recomputed)
[1] = compound: C1=CC=C(C=C1)[C@H](COC2=CC3=C(C=C2)NC(=O)N3)NC(=O)C4=CC=CN(C4=O)CC5=CC(=C(C=C5)F)F
Method in brief: (§1)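 For each measurement, 10 μM compound was applied for 30 min to K562 cells at 2×10^6 cells/mL. Aliquots were heated for 3 min across 48°C-58°C, pooled, and extracted in PBS with 0.5% NP-40 at 4°C; the supernatant after 21,000xg for 90 min was soluble protein. This was quantified by TMTpro 16plex LC-MS/MS with channel sums equalised, and thermal stability was reported relative to control samples from duplicates, on a log2 fold-change scale.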

Protein sequences, listed by entry. Tags and fused reporters are not part of them. Lines headed by an entry give the natural chain unless they say otherwise; changes in a name come on top.
UniProt Q15785: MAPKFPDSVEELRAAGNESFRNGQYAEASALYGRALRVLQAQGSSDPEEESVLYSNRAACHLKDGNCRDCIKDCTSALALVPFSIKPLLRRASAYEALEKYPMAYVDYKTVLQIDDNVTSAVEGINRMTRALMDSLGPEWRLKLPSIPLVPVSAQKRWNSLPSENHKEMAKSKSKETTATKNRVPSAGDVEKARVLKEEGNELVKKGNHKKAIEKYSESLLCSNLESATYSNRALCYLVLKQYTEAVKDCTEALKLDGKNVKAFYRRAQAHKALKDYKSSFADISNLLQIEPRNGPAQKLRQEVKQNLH
UniProt P06753, whole entry, looked up: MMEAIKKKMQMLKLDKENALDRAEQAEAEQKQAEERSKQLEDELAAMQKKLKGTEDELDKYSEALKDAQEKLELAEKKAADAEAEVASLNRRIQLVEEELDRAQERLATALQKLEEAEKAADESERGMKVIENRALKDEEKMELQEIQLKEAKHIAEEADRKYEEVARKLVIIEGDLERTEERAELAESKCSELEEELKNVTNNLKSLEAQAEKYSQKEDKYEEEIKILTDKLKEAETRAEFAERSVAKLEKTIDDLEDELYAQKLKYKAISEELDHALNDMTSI
UniProt Q12888: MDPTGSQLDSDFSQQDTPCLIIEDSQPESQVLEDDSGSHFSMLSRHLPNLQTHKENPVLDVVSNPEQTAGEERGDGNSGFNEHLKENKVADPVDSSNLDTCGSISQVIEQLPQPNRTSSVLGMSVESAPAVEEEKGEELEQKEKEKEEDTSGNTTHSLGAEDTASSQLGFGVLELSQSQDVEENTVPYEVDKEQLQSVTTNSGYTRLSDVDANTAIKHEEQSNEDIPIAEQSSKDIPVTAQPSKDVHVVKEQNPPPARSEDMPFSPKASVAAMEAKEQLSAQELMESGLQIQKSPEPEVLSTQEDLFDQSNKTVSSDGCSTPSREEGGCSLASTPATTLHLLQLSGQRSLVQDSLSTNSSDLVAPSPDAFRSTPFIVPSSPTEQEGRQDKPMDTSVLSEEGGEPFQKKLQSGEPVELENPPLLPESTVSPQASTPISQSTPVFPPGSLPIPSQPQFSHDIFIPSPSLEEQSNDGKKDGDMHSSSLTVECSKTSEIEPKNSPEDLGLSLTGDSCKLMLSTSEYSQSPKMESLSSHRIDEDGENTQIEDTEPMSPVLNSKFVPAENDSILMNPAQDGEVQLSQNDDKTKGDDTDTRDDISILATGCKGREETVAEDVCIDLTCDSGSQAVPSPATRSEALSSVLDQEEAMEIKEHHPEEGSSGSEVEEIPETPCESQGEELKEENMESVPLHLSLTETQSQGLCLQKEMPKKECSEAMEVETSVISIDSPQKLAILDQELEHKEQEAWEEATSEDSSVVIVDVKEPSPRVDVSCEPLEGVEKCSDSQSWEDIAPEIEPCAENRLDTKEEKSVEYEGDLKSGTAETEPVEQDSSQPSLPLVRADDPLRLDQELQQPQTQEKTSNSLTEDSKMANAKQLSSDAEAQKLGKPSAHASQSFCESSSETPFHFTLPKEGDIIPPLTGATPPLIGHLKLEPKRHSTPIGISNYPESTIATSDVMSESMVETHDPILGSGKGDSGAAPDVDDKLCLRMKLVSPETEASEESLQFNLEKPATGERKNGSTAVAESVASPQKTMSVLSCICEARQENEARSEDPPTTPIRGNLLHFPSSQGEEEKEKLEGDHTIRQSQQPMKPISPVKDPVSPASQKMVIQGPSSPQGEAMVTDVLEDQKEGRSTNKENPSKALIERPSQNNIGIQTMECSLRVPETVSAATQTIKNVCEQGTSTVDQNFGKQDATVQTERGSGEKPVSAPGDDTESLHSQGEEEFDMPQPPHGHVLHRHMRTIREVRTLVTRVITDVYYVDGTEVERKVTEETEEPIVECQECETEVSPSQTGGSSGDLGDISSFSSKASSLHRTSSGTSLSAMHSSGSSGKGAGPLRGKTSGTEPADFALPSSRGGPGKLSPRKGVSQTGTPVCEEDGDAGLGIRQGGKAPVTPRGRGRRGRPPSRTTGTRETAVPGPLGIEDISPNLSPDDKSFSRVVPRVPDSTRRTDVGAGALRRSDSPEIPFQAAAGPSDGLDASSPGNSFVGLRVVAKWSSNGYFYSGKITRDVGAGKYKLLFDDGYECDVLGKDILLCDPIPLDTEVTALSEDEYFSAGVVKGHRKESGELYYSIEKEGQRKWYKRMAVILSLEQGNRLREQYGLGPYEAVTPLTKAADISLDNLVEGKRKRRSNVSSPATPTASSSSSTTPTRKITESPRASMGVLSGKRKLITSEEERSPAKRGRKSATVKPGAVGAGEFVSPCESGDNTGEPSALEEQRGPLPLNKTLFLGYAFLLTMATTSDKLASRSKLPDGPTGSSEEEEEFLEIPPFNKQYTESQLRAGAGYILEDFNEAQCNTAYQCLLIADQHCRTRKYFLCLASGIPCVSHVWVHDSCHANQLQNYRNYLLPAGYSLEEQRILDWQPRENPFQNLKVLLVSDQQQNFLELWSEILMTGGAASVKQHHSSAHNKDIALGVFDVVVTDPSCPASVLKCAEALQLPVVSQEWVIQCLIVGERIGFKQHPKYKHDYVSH
UniProt P12270, whole entry, looked up: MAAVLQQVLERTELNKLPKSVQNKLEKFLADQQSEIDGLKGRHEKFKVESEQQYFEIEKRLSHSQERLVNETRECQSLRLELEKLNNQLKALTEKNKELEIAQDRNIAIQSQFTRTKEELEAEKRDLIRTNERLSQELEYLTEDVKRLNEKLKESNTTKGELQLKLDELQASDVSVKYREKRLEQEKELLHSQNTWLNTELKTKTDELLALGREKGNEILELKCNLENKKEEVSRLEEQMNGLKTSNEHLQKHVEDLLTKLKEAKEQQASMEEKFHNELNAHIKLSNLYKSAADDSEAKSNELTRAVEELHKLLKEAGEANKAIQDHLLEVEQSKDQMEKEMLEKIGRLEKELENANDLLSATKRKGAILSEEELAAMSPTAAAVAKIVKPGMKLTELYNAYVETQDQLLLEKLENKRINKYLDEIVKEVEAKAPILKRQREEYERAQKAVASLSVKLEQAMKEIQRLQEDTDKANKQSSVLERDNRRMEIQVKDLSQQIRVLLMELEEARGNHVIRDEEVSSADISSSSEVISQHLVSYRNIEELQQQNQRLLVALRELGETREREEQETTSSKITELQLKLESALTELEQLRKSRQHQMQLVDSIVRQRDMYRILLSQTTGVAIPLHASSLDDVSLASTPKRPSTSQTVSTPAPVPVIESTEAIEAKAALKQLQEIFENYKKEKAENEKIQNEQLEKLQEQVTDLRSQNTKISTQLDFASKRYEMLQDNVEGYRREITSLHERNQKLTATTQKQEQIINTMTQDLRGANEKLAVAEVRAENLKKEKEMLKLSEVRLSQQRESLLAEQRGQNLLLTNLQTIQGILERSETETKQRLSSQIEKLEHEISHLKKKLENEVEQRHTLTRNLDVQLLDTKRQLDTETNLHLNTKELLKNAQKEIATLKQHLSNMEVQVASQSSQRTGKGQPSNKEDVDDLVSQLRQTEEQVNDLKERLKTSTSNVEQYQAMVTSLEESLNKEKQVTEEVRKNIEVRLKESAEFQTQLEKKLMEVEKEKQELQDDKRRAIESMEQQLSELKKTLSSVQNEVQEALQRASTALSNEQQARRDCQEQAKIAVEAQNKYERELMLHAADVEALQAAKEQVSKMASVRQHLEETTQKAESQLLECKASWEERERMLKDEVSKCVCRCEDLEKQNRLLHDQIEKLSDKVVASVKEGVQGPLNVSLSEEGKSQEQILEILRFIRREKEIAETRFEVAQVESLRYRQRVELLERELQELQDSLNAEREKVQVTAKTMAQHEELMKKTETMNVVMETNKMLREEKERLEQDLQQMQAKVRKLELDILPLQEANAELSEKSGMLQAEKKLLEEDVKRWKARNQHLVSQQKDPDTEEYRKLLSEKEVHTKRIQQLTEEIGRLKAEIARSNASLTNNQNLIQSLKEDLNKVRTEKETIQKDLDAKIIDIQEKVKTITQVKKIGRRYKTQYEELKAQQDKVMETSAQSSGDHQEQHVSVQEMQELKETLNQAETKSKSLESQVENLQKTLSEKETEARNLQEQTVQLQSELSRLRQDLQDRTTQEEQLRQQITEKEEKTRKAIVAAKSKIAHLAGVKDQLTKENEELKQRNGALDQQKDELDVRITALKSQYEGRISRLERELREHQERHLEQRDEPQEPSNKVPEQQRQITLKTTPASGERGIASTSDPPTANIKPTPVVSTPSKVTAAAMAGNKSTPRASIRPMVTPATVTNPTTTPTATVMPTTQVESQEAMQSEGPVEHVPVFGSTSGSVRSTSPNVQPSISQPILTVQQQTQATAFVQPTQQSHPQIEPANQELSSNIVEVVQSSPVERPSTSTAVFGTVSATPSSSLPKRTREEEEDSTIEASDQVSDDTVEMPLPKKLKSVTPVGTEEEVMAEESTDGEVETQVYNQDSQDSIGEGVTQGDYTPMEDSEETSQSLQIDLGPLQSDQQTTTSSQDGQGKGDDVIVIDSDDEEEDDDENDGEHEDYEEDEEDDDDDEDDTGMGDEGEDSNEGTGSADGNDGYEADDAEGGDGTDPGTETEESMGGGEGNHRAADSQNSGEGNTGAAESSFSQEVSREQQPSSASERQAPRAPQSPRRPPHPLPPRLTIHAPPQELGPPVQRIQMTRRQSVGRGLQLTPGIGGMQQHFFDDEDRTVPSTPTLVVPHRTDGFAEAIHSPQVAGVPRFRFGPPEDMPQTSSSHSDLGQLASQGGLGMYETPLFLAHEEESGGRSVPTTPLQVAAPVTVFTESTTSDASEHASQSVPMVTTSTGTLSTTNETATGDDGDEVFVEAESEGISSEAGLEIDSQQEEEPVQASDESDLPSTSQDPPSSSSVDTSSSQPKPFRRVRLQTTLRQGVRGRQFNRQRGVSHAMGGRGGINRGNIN
UniProt Q9H3S4: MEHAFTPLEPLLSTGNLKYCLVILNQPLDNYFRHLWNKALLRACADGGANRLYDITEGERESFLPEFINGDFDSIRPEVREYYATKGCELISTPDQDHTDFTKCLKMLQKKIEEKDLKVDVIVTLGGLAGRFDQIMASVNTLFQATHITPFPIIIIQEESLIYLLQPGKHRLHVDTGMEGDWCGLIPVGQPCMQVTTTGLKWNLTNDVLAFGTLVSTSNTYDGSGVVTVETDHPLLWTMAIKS
UniProt Q8IUR0, whole entry, looked up: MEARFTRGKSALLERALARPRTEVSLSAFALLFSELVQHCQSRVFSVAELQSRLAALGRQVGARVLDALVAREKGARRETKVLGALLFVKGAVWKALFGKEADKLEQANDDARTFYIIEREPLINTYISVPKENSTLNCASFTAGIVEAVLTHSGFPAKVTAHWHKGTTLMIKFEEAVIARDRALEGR

[2] = compound: CC1=C(SC2=C1C(=N[C@H](C3=NN=C(N32)C)CC(=O)N)C4=CC=C(C=C4)Cl)C
Method in brief: as §1

[3] = compound: CC1=C2C(=CC=C1)N=C(N(C2=O)C3=CC=CC=C3C)CN4C=NC5=C(N=CN=C54)N
Method in brief: as §1

[4] = compound: Cc1sc2c(c1C)C(c1ccc(Cl)cc1)=N[C@@H](CC(=O)OC(C)(C)C)c1nnc(C)n1-2
Method in brief: as §1

[5] = compound: c1ccc([C@@H]2C[C@H]2NC2CCNCC2)cc1
Method in brief: as §1

Measured: log2 fold change

TOMM34 (UniProt Q15785)
inactive: [1] -0.14 | [2] 0.05 | [3] 0.112 | [4] -0.006 | [5] -0.063

TPM3 isoform 4 (UniProt P06753)
inactive: [1] 0.051 | [2] -0.058 | [3] -0.145 | [4] 0.099 | [5] 0.015

TRMT112 (UniProt Q9UI30)
inactive: [1] -0.037 | [2] 0.037 | [3] 0.074 | [4] -0.052 | [5] 0.004

2 successive entries from above, quoted:
TOMM34 (UniProt Q15785)
inactive: [1] -0.14 | [2] 0.05 | [3] 0.112 | [4] -0.006 | [5] -0.063

TPM3 isoform 4 (UniProt P06753)
inactive: [1] 0.051 | [2] -0.058 | [3] -0.145 | [4] 0.099 | [5] 0.015

(next part)

TP53BP1 isoform 2 (UniProt Q12888)
inactive: [1] -0.025 | [2] -0.016 | [3] 0.025 | [4] 0.001 | [5] 0.032

TPR (UniProt P12270)
inactive: [1] 0.053 | [2] 0.014 | [3] 0.001 | [4] 0.083 | [5] 0.043

TPM3 isoform 2 (UniProt P06753)
inactive: [1] -0.043 | [2] -0.01 | [3] 0.018 | [4] -0.016 | [5] 0.013

TPK1 (UniProt Q9H3S4)
inactive: [1] 0.022 | [2] 0.168 | [3] -0.052 | [4] 0.082 | [5] 0.017

TOE1 (UniProt Q96GM8)
inactive: [1] 0.049 | [2] -0.036 | [3] -0.095 | [4] 0.065 | [5] 0.014

TRAPPC5 (UniProt Q8IUR0)
inactive: [1] -0.051 | [2] 0.062 | [3] 0.046 | [4] -0.025 | [5] -0.012

Source: the supplement of paper PMC10849652
